The test system of the test is P388 leukemia ip, CD2F1 mice, survival T/C. The test can be described thus: NCI In Vivo Anticancer Drug Screen. Data for tumor model P388 Leukemia (intraperitoneal) in CD2F1 (CDF1) mice. To be noted: T/C endpoint: median survival time, higher T/C = longer survival.
The mark [1] stands for this setting: dose: 100.0 mg/kg/injection, schedule: Q04DX003 (ip), vehicle: saline with Tween-80.
[2] abbreviates: dose: 200.0 mg/kg/injection, schedule: Q01DX005 (ip), vehicle: saline with Tween-80.
Setting [3] is: dose: 120.0 mg/kg/injection, schedule: Q01DX005 (ip), vehicle: Klucel (hydroxypropylcellulose) (HPC).
Where [4] appears, read: dose: 240.0 mg/kg/injection, schedule: Q01DX005 (ip), vehicle: Klucel (hydroxypropylcellulose) (HPC).
Setting [5] is: dose: 200.0 mg/kg/injection, schedule: Q04DX003 (ip), vehicle: saline with Tween-80.
[6] abbreviates: dose: 400.0 mg/kg/injection, schedule: Q04DX003 (ip), vehicle: saline with Tween-80.
The mark [7] stands for this setting: dose: 200.0 mg/kg/injection, schedule: Q01DX009 (ip), vehicle: saline with Tween-80.
The mark [8] stands for this setting: dose: 240.0 mg/kg/injection, schedule: Q01DX005 (ip), vehicle: saline with Tween-80.
Where [9] appears, read: dose: 200.0 mg/kg/injection, schedule: Q01DX005 (ip), vehicle: Klucel (hydroxypropylcellulose) (HPC).
[10] abbreviates: dose: 200.0 mg/kg/injection, schedule: Q01DX009 (ip), vehicle: saline.

This passage reports T/C and survivor count results from PubChem BioAssay AID330 (DTP/NCI, 2004).

The list shows only some results of the screen, not a fair sample: it gathers tests that were run many times, whatever their T/C, doses with no T/C, and many T/C values between a quarter and a half above the control. Further doses and runs are listed elsewhere. T/C: endpoint of the treated group in % of that of the vehicle group. Some entries give survivors of the animals treated and no T/C: the source holds a T/C of zero for them, seemingly a mark for toxic or unscored doses. Some doses without a T/C left all or most animals alive at the check, yet need not have been tolerated: the source hardly ever lists a survival T/C far under the control, and the zero likely stands for such cases as well. Counts of survivors are from the toxicity check (mostly the fifth day) where no day follows; animals may have died later. Schedule codes are those of the source, read here as Q, the interval in days (D) or hours (H), X, the number of doses. Where survival is the endpoint, the PubChem record calls one and a half times the control and up active, and a quarter to a half above the control has no call in these data; cut-offs in other NCI protocols can differ. Some entries were tested several times; the values are given in rising order.

For `NC(N)=NC(N)=Nc1ccc2c(Cl)c(Cl)ccc2c1`, the T/C (dose: 50.0 mg/kg/injection, schedule: Q04DX003 (ip), vehicle: saline with Tween-80) is 125 % of control. The survivor count reads like this: (dose: 75.0 mg/kg/injection, schedule: Q04DX003 (ip), vehicle: saline with Tween-80) 3 of 6; (dose: 100.0 mg/kg/injection, schedule: Q01DX005 (ip), vehicle: saline with Tween-80) 0 of 6; under setting [1], 0 of 6; under setting [2], 0 of 6.
Regarding `COC1OC(=O)C(Cl)=C1N=[N+]=[N-]` (stereo not given), the survivor count (dose: 60.0 mg/kg/injection, schedule: Q01DX005 (ip), vehicle: Klucel (hydroxypropylcellulose) (HPC)) is listed as 0 of 6; the survivor count under setting [3] is 0 of 6; the survivor count under setting [4] is 0 of 6.
Turning to `O=C(O)CCCC(=O)NC1CC2c3ccccc3C1c1ccccc12` (stereo not given), the survivor count (dose: 300.0 mg/kg/injection, schedule: Q01DX009 (ip), vehicle: saline with Tween-80) is 5 of 6.
On to `CC1CCC2(OC1)OC1CC3C4CC=C5CC(OC6OC(CO)C(OC7OC(C)C(OC8OC(C)C(O)C(O)C8O)C(O)C7O)C(O)C6OC6OC(C)C(O)C(O)C6O)CCC5(C)C4CCC3(C)C1C2C` (stereo not given), for which the survivor count is recorded as 4 of 4 (dose: 2.5 mg/kg/injection, schedule: Q01DX009 (ip), vehicle: saline); 5 of 6 (dose: 5.0 mg/kg/injection, schedule: Q01DX009 (ip), vehicle: saline); 6 of 6 (dose: 10.0 mg/kg/injection, schedule: Q01DX009 (ip), vehicle: saline); 3 of 6 (dose: 20.0 mg/kg/injection, schedule: Q01DX009 (ip), vehicle: saline).
`O=[N+]([O-])c1cc2[nH]cnc2c([N+](=O)[O-])c1N1CCCCC1`: the survivor count was 3 of 6 under setting [1], 1 of 6 under setting [5] and 5 of 6 under setting [6].
For the compound `CC(C)(C)c1cc2c(c(C(C)(C)C)c1)[O][Sb]([c]1ccccc1)([c]1ccccc1)([c]1ccccc1)[NH]2`, the survivor count under setting [7] is on record as 6 of 6.
Regarding `O=C(CBr)c1cc2c(cc1Br)OCO2`, the survivor count is given as 0 of 6 (dose: 50.0 mg/kg/injection, schedule: Q01DX001 (ip), vehicle: Klucel (hydroxypropylcellulose) (HPC)); 0 of 6 (dose: 100.0 mg/kg/injection, schedule: Q01DX001 (ip), vehicle: Klucel (hydroxypropylcellulose) (HPC)); 0 of 6 (dose: 200.0 mg/kg/injection, schedule: Q01DX001 (ip), vehicle: Klucel (hydroxypropylcellulose) (HPC)).
In the case of `CC(=N/N=C(N)N)/C(C)=N/N=C(N)N`, the survivor count under setting [2] is 0 of 6.
Regarding `OCC1OC([Se])C(O)C(O)C1O.[CH3][Sb][CH3]` (stereo not given), under setting [8], the survivor count is recorded as 0 of 6.
In the case of `COc1cc(OC)c(NC(=S)Nc2cc(C)ccc2OC)cc1Cl`, the survivor count (dose: 200.0 mg/kg/injection, schedule: Q01DX009 (ip), vehicle: DMSO) is 6 of 6.
On to `CCCCCC(CN(C)C)C(=O)/C=C/c1ccc2c(c1)OCO2` (stereo not given), for which the survivor count under setting [7] was 0 of 6.
For `S=C(NCCc1ccccc1)N/N=C/c1ccc(Cl)cc1`, under setting [9], the survivor count is reported as 6 of 6.
For the compound `Cc1cc[c]([Bi]([c]2ccc(C)cc2)[c]2ccc(C)cc2)cc1`, under setting [4], the survivor count is 6 of 6.
Turning to `C1CN1c1nnc(N2CC2)nn1`, the T/C is 144 % of control (dose: 3.75 mg/kg/injection, schedule: Q01DX005 (ip), vehicle: saline) and 129 % of control (dose: 7.5 mg/kg/injection, schedule: Q01DX005 (ip), vehicle: saline). Further, the survivor count (dose: 30.0 mg/kg/injection, schedule: Q01DX005 (ip), vehicle: saline) is given as 5 of 6; the survivor count (dose: 60.0 mg/kg/injection, schedule: Q01DX005 (ip), vehicle: saline with Tween-80) is 6 of 6; the survivor count (dose: 120.0 mg/kg/injection, schedule: Q01DX005 (ip), vehicle: saline with Tween-80) was 0 of 6; the survivor count under setting [8] is given as 0 of 6.
Regarding `COc1cc(NCC(C)(O)CN2CCCC(C)C2C)c2ncccc2c1` (stereo not given), the survivor count is reported as 3 of 5 (dose: 50.0 mg/kg/injection, schedule: Q01DX005 (ip), vehicle: saline); 0 of 5 (dose: 100.0 mg/kg/injection, schedule: Q01DX005 (ip), vehicle: saline); 0 of 5 (dose: 200.0 mg/kg/injection, schedule: Q01DX005 (ip), vehicle: saline).
Take `CCC[CH2][Sn]1([CH2]CCC)[O]OC(c2ccc(C)cc2)[O]1` (stereo not given): under “dose: 1.5 mg/kg/injection, schedule: Q01DX009 (ip), vehicle: saline with Tween-80”, the T/C is 143 % of control.
As for `CC1(C)N=C(NN=C2CCCCC2)SP1(=O)NNc1ncccn1` (stereo not given), the survivor count by setting is: under setting [3], 3 of 6; under setting [4], 0 of 6.
As for `O=c1[nH]c2ccc(Cl)cc2c2ccccc12`, under “dose: 400.0 mg/kg/injection, schedule: Q01DX009 (ip), vehicle: Klucel (hydroxypropylcellulose) (HPC)”, the survivor count is 4 of 6.
For the compound `CSc1cccc(N=C(N)N)c1`, the survivor count under setting [10] is on record as 2 of 6.
On to `COc1cc2c(c(OC)c1O)-c1ccc(OC)c(=O)cc1[C@@H](NC(C)=O)CC2`, for which the T/C was 146 % of control (dose: 2.5 mg/kg/injection, schedule: Q01DX009 (ip), vehicle: Klucel (hydroxypropylcellulose) (HPC)); 138 and 141 % of control (dose: 5.0 mg/kg/injection, schedule: Q01DX009 (ip), vehicle: Klucel (hydroxypropylcellulose) (HPC)). For the same compound, the survivor count (dose: 40.0 mg/kg/injection, schedule: Q01DX009 (ip), vehicle: Klucel (hydroxypropylcellulose) (HPC)) is 5 of 6 and the survivor count (dose: 80.0 mg/kg/injection, schedule: Q01DX009 (ip), vehicle: Klucel (hydroxypropylcellulose) (HPC)) was 2 of 6.
Regarding `O=[N+]([O-])c1cc2[nH]cnc2c([N+](=O)[O-])c1N1CCOCC1`, the survivor count is recorded as 3 of 6 under setting [1], 2 of 6 under setting [5] and 0 of 6 under setting [6].
Take `CCCN=C(N)c1ccc(NC(=O)c2ccc(C(=O)Nc3ccc(C(N)=NCCC)cc3)cc2)cc1`: the T/C (dose: 3.13 mg/kg/injection, schedule: Q04DX003 (ip), vehicle: saline with Tween-80) is 145 % of control. In addition, the survivor count (dose: 100.0 mg/kg/injection, schedule: Q01DX009 (ip), vehicle: saline with Tween-80) is listed as 6 of 6.
As to `CN1C2CCCC1CC1(C2)NC(=O)NC1=O` (stereo not given), under “dose: 200.0 mg/kg/injection, schedule: Q01DX009 (ip), vehicle: water”, the survivor count is recorded as 0 of 6.
As to `COc1ccc(-n2c(-c3ccc(Cl)cc3)csc2=N)c(OC)c1`, under setting [10], the survivor count is recorded as 0 of 6.
`O=C1NC(O)c2cc(Br)cc(Br)c2O1` (stereo not given): the survivor count is recorded as 3 of 6 (dose: 50.0 mg/kg/injection, schedule: Q01DX005 (ip), vehicle: Klucel (hydroxypropylcellulose) (HPC)); 2 of 6 (dose: 100.0 mg/kg/injection, schedule: Q01DX005 (ip), vehicle: Klucel (hydroxypropylcellulose) (HPC)); 0 of 6 under setting [9].
With `COc1ccc(CC2(C(=O)O)NCCS2)cc1OC` (stereo not given), the survivor count (dose: 400.0 mg/kg/injection, schedule: Q04DX003 (ip), vehicle: Klucel (hydroxypropylcellulose) (HPC)) was 3 of 6.
